Measured values as given in PubChem BioAssay AID1347426 (Functional Genomics Laboratory (NCATS/FGL), 2020).
The whole screen tested about 31,000 sequences, of which about 1,400 (4.5%) were called active.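 The calls were made as follows: active = median seed-adjusted z-score above 1 or below -1; inactive = the rest.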 This is one part of the list.

Experiment: Novel Modifiers of Survival Motor Neuron (SMN) Protein: Gene Identification via Genome-wide siRNA Screen;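 also: luminescence tracks full-length SMN protein made from the SMN2 reporter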
Conditions: HEK293T SMN2-luciferase reporter, siRNA knockdown, 72 h; actives lie on both sides
Summary of the method: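 Each of three siRNAs per gene is reverse-transfected (1 pmol) into reporter HEK293T cells whose luciferase output tracks SMN protein level. After 72 h culture, ONE-Glo luminescence is control-normalized, log10-transformed and MAD-standardized; Common Seed Analysis deprioritizes seed-driven hits.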
With GAGAGUUCAUUUACCUAAATT against ANGPTL2 the median seed-adjusted z-score was inactive: 0.141.
With CCACGUUCACCAAGAUCUUTT against RBM38 the median seed-adjusted z-score was inactive: 0.0358.
For GCAUUGGAACGAUUCUAAATT against CTPS2, the median seed-adjusted z-score was active: 1.08.
With GACUCCCAAUACAACCCAATT against DDX24 the median seed-adjusted z-score was inactive: 0.246.
In the case of GAAUCUAAGCGAUAAUAAUTT against FSHR, the median seed-adjusted z-score is reported as inactive: -0.462.
For GAACUCCUCGUCUUACUUUTT against CDC2L2, the median seed-adjusted z-score was inactive: 0.153.
In the case of UGACAUACGUGAAAAGUCUTT against ZNF77, the median seed-adjusted z-score is reported as inactive: 0.345.
With GUUAGAACCUGGAAACGUATT against SPAG1 the median seed-adjusted z-score was inactive: 0.413.
With GCAGGACCUUUUAGCAUCUTT against LYL1 the median seed-adjusted z-score was inactive: -0.118.
In the case of CCAUCGACAUGGACACGCATT against JUND, the median seed-adjusted z-score is reported as inactive: -0.334.
In the case of GAAUAACCGUUGGUUUAAUTT against U2AF1, the median seed-adjusted z-score is reported as active: 2.08.
In the case of CAGCGGAUCGUGUGAAGAATT against UPF1, the median seed-adjusted z-score is reported as inactive: 0.253.
In the case of GGCAAUCGGUGGUAGUAAATT against PAX6, the median seed-adjusted z-score is reported as inactive: -0.275.
With GGAUGACUAUGAACAUGCATT against RNMT the median seed-adjusted z-score was inactive: -0.281.
For CAACGGCAGGAAAUUCUAATT against KLRA1, the median seed-adjusted z-score was inactive: 0.918.
With GCAACACGCUAGAAGGGUUTT against HAT1 the median seed-adjusted z-score was inactive: -0.622.
With CUACCAUGGUGUACCAACATT against QRICH1 the median seed-adjusted z-score was active: -1.04.
For CUCUGAGUAUGUGACCGAATT against XPNPEP1, the median seed-adjusted z-score was active: -1.5.
For CGGUCUACAGCAUCGAGUATT against IL22RA1, the median seed-adjusted z-score was active: -1.14.
In the case of GCAUUUGGAAGUUACUGUUTT against YAF2, the median seed-adjusted z-score is reported as inactive: 0.
For GACCAACAAUUAAGAACGATT against TRAF3IP3, the median seed-adjusted z-score was inactive: 0.0238.
With CGAUUCUUCUCACCCACAUTT against KCTD21 the median seed-adjusted z-score was inactive: 0.0236.
In the case of CCACGAGUAUUACUACAUCTT against EFNA2, the median seed-adjusted z-score is reported as inactive: -0.314.
In the case of GCUGCAAAAUUCUUGACAATT against DCTN5, the median seed-adjusted z-score is reported as inactive: 0.0112.
With AUCUACAGCUUGCUAGGUATT against SLC26A10 the median seed-adjusted z-score was inactive: -0.169.
For GCCCAGUUGUUUGCUAUCATT against FSTL1, the median seed-adjusted z-score was inactive: 0.503.
For GGAAUGACAAGGAACUAUATT against BCO2, the median seed-adjusted z-score was inactive: -0.183.
With GGCUCGCUUCAAUGACAUATT against ADAM29 the median seed-adjusted z-score was inactive: 0.904.
In the case of GGGAAGAUUUCAUCCUUAATT against MVK, the median seed-adjusted z-score is reported as inactive: -0.192.
In the case of UGCACGUGGUGUAACCUCATT against TNFRSF4, the median seed-adjusted z-score is reported as inactive: 0.311.
With CCUAUACUGUGGGCUAUAATT against STARD4 the median seed-adjusted z-score was inactive: 0.173.
With GGAUCUCAGUCAAAGGCAUTT against CPZ the median seed-adjusted z-score was inactive: -0.0748.
With GCUCCGAGGGUAUCAAGUATT against AP1M2 the median seed-adjusted z-score was inactive: 0.0641.
For ACCAAAUGAUGACCACCAATT against CHRNA2, the median seed-adjusted z-score was inactive: -0.513.
In the case of CCUCAGGUGCAGAAAGUCATT against GAL3ST2, the median seed-adjusted z-score is reported as inactive: 0.
For AGAAGGUUCAGGACCUAGATT against ACE, the median seed-adjusted z-score was inactive: 0.0874.
In the case of CGAUUACAGUGCCCAGGAUTT against NEBL, the median seed-adjusted z-score is reported as inactive: 0.0769.
With CACCUACAUCAACAUAAAATT against ZNF714 the median seed-adjusted z-score was inactive: 0.
With CGAUCAUCCGGACAUCAAATT against ALDH6A1 the median seed-adjusted z-score was inactive: -0.0908.
With GACUAGUACUUACGGCUUUTT against RBM15 the median seed-adjusted z-score was inactive: -0.409.
In the case of GGACAGAUCUGCAAAGAGATT against CETP, the median seed-adjusted z-score is reported as inactive: 0.
With CCACCGAUAUUUCCUGGAATT against RNASEH2A the median seed-adjusted z-score was inactive: -0.158.
With CAAGAAUGACUGUGAUGAATT against PLA2G12A the median seed-adjusted z-score was inactive: 0.139.
In the case of GAAUGGUUUUCUUAGCAUATT against GNG4, the median seed-adjusted z-score is reported as inactive: -0.188.
In the case of GAGACACGGUGUAUGAAGATT against MYO5B, the median seed-adjusted z-score is reported as inactive: -0.212.
For CUCUACGAAUGGUUACCGATT against PSMD12, the median seed-adjusted z-score was inactive: 0.956.
In the case of CCAUCCCAGCUAUCCUGUUTT against CCL21, the median seed-adjusted z-score is reported as inactive: -0.227.
With GGUGCUUACAACUGACUAATT against TLR6 the median seed-adjusted z-score was inactive: 0.505.
In the case of GGUUGAUACCCAAAGAUCATT against POLB, the median seed-adjusted z-score is reported as inactive: 0.376.
In the case of GGAAUACCUAAACUUCGAATT against MUT, the median seed-adjusted z-score is reported as inactive: 0.333.
In the case of CCCUCUUGGUGUUCGACUATT against CDH3, the median seed-adjusted z-score is reported as inactive: -0.138.
In the case of CAAUGGUACCUAUGACUAUTT against ALG3, the median seed-adjusted z-score is reported as inactive: -0.446.
With GCAAGACAGAGAUCACGGATT against KRT13 the median seed-adjusted z-score was inactive: 0.101.
With CCAUCAUCCAGAGACGAAATT against ANGPTL7 the median seed-adjusted z-score was inactive: 0.
